Source: PubChem BioAssay AID540276 (National Center for Advancing Translational Sciences (NCATS), 2011)
Among all 300,000 compounds or so, about 5,400 (1.8%) were called active. This list was built around the results that the source calls inconclusive (neither active nor inactive); the mix of calls is not that of the screen. Calls follow the shape of the full dose curve; tested in HEK293 cells. A potency beside an inconclusive call is a rough fit, not a confirmed value.

experiment: qHTS for inhibitors of binding or entry into cells for Marburg Virus; conditions: Marburg virus pseudotyped entry inhibition, cell reporter; series mostly up to 37.8 µM
Potency is read from the fitted curve at half-maximal effect.

| Structure (SMILES) | Potency |
| --- | --- |
| CC(C)OCCCn1c(=S)[nH]c2ccc(N3CCOCC3)cc2c1=O | inconclusive: 16.4 µM [inhibitor, single point] |
| CCOC(=O)c1c(C)[nH]c(C2=NNC(=Nc3cccc(Cl)c3)SC2)c1C | inconclusive: 23.1 µM [inhibitor, partial curve, poor fit] |
| CCN(c1ccc(NS(=O)(=O)c2cc(Cl)ccc2Cl)cc1)C(C)C | inconclusive: 11.2 µM [inhibitor, single point] |
| CCn1c(CCc2ccccc2)nc2ccccc21 | inconclusive: 2 µM [activator, partial curve, poor fit] |
| N#Cc1c2n(c(=S)n(-c3ccccc3[N+](=O)[O-])c1=O)CCCCC2 | inconclusive: 3.98 µM [activator, partial curve, poor fit] |
| O=c1c2ccccc2nc2oc3ccccc3n12 | inconclusive: 0.562 µM [activator, full curve, poor fit] |
| COc1ccc(CCNC(=O)CN(C)S(=O)(=O)c2cccs2)cc1OC | inconclusive: 0.562 µM [inhibitor, full curve, poor fit] |
| Cc1ccc(NC(=O)c2c(C)oc3ccc(O)c(CN4CCCCCC4)c23)c(C)c1 | active: 3.55 µM |
| Cn1nccc1C(=O)N1CCCC(C(=O)c2cccc3ccccc23)C1 (stereo unspecified) | inconclusive: 0.562 µM [inhibitor, full curve, poor fit] |
| CCOC(=O)c1ccc(N2C(=O)c3n[nH]c(-c4cccs4)c3C2c2ccc(C(C)(C)C)cc2)cc1 (stereo unspecified) | inactive |
| O=C(Nc1nc2n(n1)C(c1ccccc1)C=C(c1ccccc1)N2)c1ccc(Cl)c([N+](=O)[O-])c1 (stereo unspecified) | inconclusive: 5.01 µM [inhibitor, full curve, poor fit] |
| CCOc1ccccc1NC(=O)Cn1c(=O)n(Cc2ccccc2)c(=O)c2c(C)c(C)sc21 | inactive |
| O=C(CSc1nnc(-c2cccnc2)n1-c1ccc(SC(F)F)cc1)N1CCCc2ccccc21 | inactive |
| COc1ccc(S(=O)(=O)Nc2cccc3ccc(O)cc23)cc1 | inconclusive: 4.47 µM [inhibitor, single point] |
| Cc1c(C(=O)Nc2ccc3c(c2)CCC3)cccc1[N+](=O)[O-] | inactive |
| O=C(CSc1nc(=O)n(CCCN2CCOCC2)c2c1CCCC2)Nc1ccc(F)cc1F | inconclusive: 35.5 µM [inhibitor, single point] |
| COc1cccc(-c2ccc3c(N)c(C(=O)c4ccc(Cl)cc4)sc3n2)c1 | inconclusive: 35.5 µM [inhibitor, single point] |
| CNC(=S)N/N=C/c1cn(CCOc2ccccc2OC)c2ccccc12 | inconclusive: 7.94 µM [inhibitor, partial curve, poor fit] |
| CCCC[C@@H]1C[C@H]1[C@@H](NC(=O)c1cccs1)c1ccc(Cl)cc1 | inconclusive: 32.6 µM [inhibitor, single point] |
| COc1cccc(Cn2cccc(NC(=O)NC3CCCCC3)c2=O)c1 | inactive |
| Cc1ccc(S(=O)(=O)N(C)C)cc1NC(=O)C(C)N(C)CCOc1ccc(Cl)cc1 (stereo unspecified) | inconclusive: 17.8 µM [inhibitor, single point] |
| Cc1cccc(OCc2nc3c4c(ncn3n2)-c2ccccc2CC42CCCC2)c1 | inactive |
| CS(=O)(=O)N1CCc2cc(C(=O)Nc3ccccc3Cl)ccc21 | inactive |

Among those listed so far, these have two or more sulfur atoms:

| Structure (SMILES) | Potency |
| --- | --- |
| COc1ccc(CCNC(=O)CN(C)S(=O)(=O)c2cccs2)cc1OC | inconclusive: 0.562 µM [inhibitor, full curve, poor fit] |
| O=C(CSc1nnc(-c2cccnc2)n1-c1ccc(SC(F)F)cc1)N1CCCc2ccccc21 | inactive |

Remaining list, next part

| Structure (SMILES) | Potency |
| --- | --- |
| CC#CCC1(C(=O)OC)C(=O)NC[C@H]1c1ccccc1 (stereo partly specified) | inconclusive: 0.0047 µM [activator, full curve, poor fit] |
| Cn1cc(Cl)c(C(=O)OCC(=O)Nc2nc(-c3ccc(Br)cc3)cs2)n1 | inconclusive: 29.1 µM [inhibitor, single point] |
| O=C(NNS(=O)(=O)c1ccc(F)cc1)C1CCN(Cc2cccc(F)c2)CC1 | inactive |
| O=C(/C=C/c1ccc(OCCCF)cc1)Nc1ccnc(-c2ccncc2)n1 | inconclusive: 31.6 µM [inhibitor, single point] |
| Cn1c(SCc2ccc(C#N)cc2)nnc1-c1ccccc1 | inactive |
| O=C(CSc1n[nH]c(=O)[nH]c1=O)Nc1ccc(SC(F)F)cc1 | inactive |
| Cc1cc(C=O)c(C)n1CC1CCCO1 (stereo unspecified) | inactive |
| O=C(Nc1ccc(C(F)(F)F)cc1)C1CCCN(c2cnccn2)C1 (stereo unspecified) | inactive |
| O=C(NC1CCN(Cc2ccccc2)CC1)c1cn(-c2ccccc2)nc1-c1cccnc1 | active: 11.2 µM |
| O=C(Nc1ccc(NC(=O)C2CCCCC2)nc1)c1cccs1 | inactive |
| CC1CN(C(=O)Nc2ccc(C(=O)NCc3cccc(F)c3)cc2)c2ccccc2S1 (stereo unspecified) | inactive |
| CC1(C)Cc2cccc(OCC(=O)N3CCN(c4cccc(Cl)c4)CC3)c2O1 | inconclusive: 35.5 µM [inhibitor, single point] |
| CCOC(=O)NC(NC(=S)Nc1ccc(OC)cc1)C(Cl)(Cl)Cl (stereo unspecified) | inconclusive: 6.31 µM [inhibitor, single point] |
| CCCn1c2ccccc2c2nnc(SCC(=O)Nc3ncccn3)nc21 | inconclusive: 1.26 µM [inhibitor, single point] |
| Cc1cc(C)cc(OCC(=O)N2CCN(c3ncccn3)CC2)c1 | inconclusive: 35.5 µM [activator, single point] |
| CN1CCN(CC(=O)c2cc(C(C)(C)C)c(O)c(C(C)(C)C)c2)CC1 | inconclusive: 35.5 µM [inhibitor, single point] |
| Cc1cccc(-c2c3c(=O)n(C)c(=O)n(C)c3cn2-c2ccccc2O)c1 | inactive |
| CC1(C)CC(=O)c2cnc(NCc3ccco3)nc2C1 | inconclusive: 1.26 µM [inhibitor, single point] |
| CCOC(=O)C1=C(C)NC(C)=C(C(=O)OCC)C1C(=O)OCC(=O)NCc1ccccc1OC | inconclusive: 22.4 µM [inhibitor, single point] |
| S=C(Nc1cccnc1)Nc1ccccc1Br | inactive |
| CC1(C)Cc2c(C#N)c(N3CCOCC3)nc(-c3ccccc3)c2CO1 | inactive |
| O=C(CNc1ccccc1)Nc1ccc(F)cc1 | inconclusive: 2.91 µM [activator, partial curve] |
| CCNc1sc(C(=O)c2cccs2)c(N)c1C#N | inconclusive: 3.55 µM [activator, single point] |
